The values below come from PubChem BioAssay AID2685 (National Center for Advancing Translational Sciences (NCATS), 2010).

A short description of this experiment: qHTS Assay for Lipid Storage Modulators in Drosophila S3 Cells.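 On cell number change: cells counted by Cell Tracker Red CMTPX staining in the red channel.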 The conditions noted are these: BODIPY lipid droplet fluorescence, 18-24 h; for cell number change: measured here: cell count max response, cells fed with added oleic acid. In a few lines:
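Drosophila S3 cells loaded with oleic acid (400 uM, as added) and compounds at several concentrations; lipid droplets imaged by 488-nm laser-scanning cytometry, 500–530 nm intensity and object ratio to cell channel. Percent activity normalized to 20 uM Triacsin C.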
(In general: qHTS replaces the single test concentration by a dilution series.)

Setting [1] is: measured here: lipid fluorescence (Fed channel) AC50, cells fed with added oleic acid.
The mark [2] stands for this setting: measured here: cell number channel AC50, cells fed with added oleic acid.

This is one part of the list. These are further read-outs of the screen, such as a control signal, another cell line or another target. No call is given for them. The list favours compounds with an active or inconclusive main result. Words in brackets tell the shape of the fitted curve; partial curves, single points and poor fits give uncertain potencies.

For `COC(CNC(=O)c1c[nH]c2ccc(S(=O)(=O)N3CCOCC3)cc2c1=O)OC`, the cell number change was -4.03%.
The term AC50 denotes the concentration giving half of the maximal activity seen. Low values mean greater potency, high ones weaker potency. Consider `CC1CCCN(CCCCOc2cccc(Br)c2)C1` (centres undefined), for which the cell number change is -8.16%. Besides, the AC50 under setting [1] is 29.1 µM [rising, single point].
Consider `C/C(=N\Nc1ccc([N+](=O)[O-])cc1[N+](=O)[O-])c1cccnc1`, for which the cell number change is -43.6%. In addition, under setting [2], the AC50 is 1.46 µM [falling, partial curve]. Under setting [1], the AC50 is 23.1 µM [falling, single point].
For `CCOc1ccc(NC(=O)NN2C(C)CCCC2C)cc1` (centres undefined), the cell number change was found to be 52.1%. In addition, the AC50 under setting [2] was 6.51 µM [rising, partial curve, poor fit]. For the same compound, the AC50 under setting [1] is 6.51 µM [rising, partial curve, poor fit].
For `CCOc1ccc(C(=O)Nc2ccccc2C#N)cc1[N+](=O)[O-]`, the AC50 under setting [1] is 29.1 µM [rising, single point].
For the compound `Cc1ccc(C(C)C)c(OCCn2ccnc2C)c1`, the cell number change came to 15.8%.
Regarding `Cn1c(=O)n(C)c2cc(NC(=O)c3ccccc3[N+](=O)[O-])c(Br)cc21`, the cell number change was found to be 12.1%. The AC50 under setting [1] is 2.31 µM [rising, partial curve, poor fit].
Regarding `Cc1nn(-c2ccccc2)c(N)c1N=Nc1ccc2ccccc2c1`, the cell number change is -55.1%. For the same compound, the AC50 under setting [2] is 29.1 µM [falling, single point]. In addition, the AC50 under setting [1] is 2.91 µM [rising, single point].
Turning to `O=[N+]([O-])c1ccccc1Nc1cccnc1`, the cell number change is -12.2%. For the same compound, under setting [1], the AC50 was 20.6 µM [rising, single point].
For `CCOc1ccc(CC(=O)N2CCN=C2SC)cc1`, the cell number change was -7.08%.
Regarding `S=c1[nH]nc(-c2ccc(Cl)cc2)n1-c1ccc(Cl)cc1`, the cell number change was -20.2%. Besides, the AC50 under setting [1] is 3.26 µM [rising, full curve].
`COCCN(C(=O)COC(=O)c1ccco1)c1c(N)n(Cc2ccccc2)c(=O)[nH]c1=O`: the cell number change was -28%. The AC50 under setting [1] is 29.1 µM [falling, single point].
As for `CCOC(=O)C1CCN(C(=O)CCS(=O)(=O)c2ccc3c(c2)n(C)c(=O)c(=O)n3C)CC1`, the cell number change amounted to 9.8%.
As to `COc1ccccc1N(CC(=O)NCc1ccccc1)S(C)(=O)=O`, the cell number change was -163%. Besides, the AC50 under setting [2] is 29.1 µM [falling, single point]. The AC50 under setting [1] was 0.164 µM [falling, full curve, poor fit].
Consider `O=C(c1ccc(S(=O)(=O)Nc2ccccc2F)cc1)N1CCCCCC1`, for which the cell number change was -2.93%.
As for `CC(C)N(C(=O)CN1CCN(C(=O)C2COc3ccccc3O2)CC1)C(C)C` (centres undefined), the cell number change was -57.8%. Further, under setting [2], the AC50 was 20.6 µM [falling, partial curve, poor fit]. In addition, the AC50 under setting [1] is 29.1 µM [falling, partial curve, poor fit].
Turning to `Cc1ccc(SCc2ccc(C(=O)N3CCCCC3)cc2)cc1`, the cell number change is -7.64%.
For `CC(C)NS(=O)(=O)c1ccc(OCC(=O)N2CCCC2)c(Cl)c1`, the cell number change was 21%. In addition, under setting [1], the AC50 is 29.1 µM [rising, single point].
For the compound `CC1CN(c2nc3ccccc3cc2-c2ccccc2)CC(C)O1` (centres undefined), the cell number change amounted to 40%. In addition, under setting [2], the AC50 is 3.26 µM [rising, partial curve].
With `c1ccc2c(c1)ncn2CCCOc1ccc2c(c1)CCC2`, the cell number change was -157%. The AC50 under setting [2] is 2.91 µM [rising, single point].
Take `Cc1cc(Cl)ccc1OCC(=O)OC(C)C(=O)NC(N)=O` (centres undefined): the cell number change is -10.6%.
As for `O=C(NC(=S)NC1CCCC1)c1ccccc1`, the cell number change came to 14.1%. In addition, the AC50 under setting [1] is 0.731 µM [rising, full curve, poor fit].
For the compound `COc1cc(NC(=S)Nc2ccc(N(C)C(C)=O)cc2)cc(OC)c1`, the cell number change was -42.3%.
`N#C/C(=C/c1ccc(-c2ccc(C(=O)O)c(Cl)c2)o1)C(=O)NCC1CCCO1` (centres undefined): the AC50 under setting [2] was 2.06 µM [rising, partial curve] and the AC50 under setting [1] was 0.461 µM [rising, partial curve, poor fit].
`Cc1csc(SCC(=O)O)n1`: the cell number change is 13.5%. The AC50 under setting [2] was 0.58 µM [falling, single point].
`COc1ccc(-c2coc3cc(OC4OC(CO)C(O)C(O)C4O)ccc3c2=O)cc1` (centres undefined): the cell number change is -20.2%. Moreover, the AC50 under setting [1] was 25.9 µM [falling, single point].
In the case of `Cn1c(=O)c2c(nc(SCCN3CCCCC3)n2C)n(C)c1=O`, under setting [1], the AC50 is 29.1 µM [rising, single point].
As for `COc1ccc(CCN2C(=O)c3cccnc3C2=O)cc1OC`, the cell number change is 1.18%. The AC50 under setting [1] is 0.164 µM [falling, full curve].
Regarding `COc1cc(C(=O)Nc2nnc(CC(C)C)s2)c([N+](=O)[O-])cc1OC`, the AC50 is, setting by setting: under setting [2], 0.651 µM [falling, partial curve]; under setting [1], 8.2 µM [falling, partial curve].
In the case of `CNC(=S)/N=C/NOCc1c(Cl)cccc1Cl`, the cell number change was -64.8%. Also, the AC50 under setting [2] is 20.6 µM [falling, single point]. In addition, under setting [1], the AC50 is 1.84 µM [falling, partial curve].
With `COC(=O)CCC(=O)N1CN2CN(C(=O)CCC(=O)OC)CC([N+](=O)[O-])(C2)C1`, the cell number change is 28%. The AC50 under setting [1] was 2.91 µM [rising, single point].
`O=C(Nc1ccccc1[N+](=O)[O-])c1cc(S(=O)(=O)Nc2ccccn2)ccc1Cl`: the cell number change was 20.5%.
For `O=C(CSc1nnc2ccc(-c3ccncc3)nn12)N1CCCCC1`, the cell number change is -39.6%. The AC50 under setting [2] is 32.6 µM [falling, single point].
For the compound `COc1ccc(Cn2c(C)nnc2-c2cnn(C)c2N)cc1OC`, the cell number change came to 57.9%. Moreover, under setting [2], the AC50 is 29.1 µM [rising, single point]. Besides, the AC50 under setting [1] was 29.1 µM [rising, partial curve, poor fit].
In the case of `CCc1nc2sc3c(c2c(=O)o1)CCCC3`, the cell number change stood at 17.6%. Moreover, the AC50 under setting [1] was 10.3 µM [rising, partial curve].
Take `Cc1cc2ccccn2c1C(=O)c1nc(NCc2ccccc2)ncc1Cl`: the cell number change worked out at 74.9%. Further, under setting [2], the AC50 was 0.00651 µM [rising, full curve, poor fit].
With `COc1ccccc1NC(=O)N1CCN(c2ccnc3cc(Cl)ccc23)CC1`, the cell number change was -7.38%. For the same compound, the AC50 under setting [1] is 29.1 µM [falling, single point].
Turning to `CCN(CC(=O)Nc1cc(C)on1)CC(=O)Nc1ccccc1C(F)(F)F`, the cell number change is -25%. The AC50 under setting [2] was 0.82 µM [falling, single point]. For the same compound, the AC50 under setting [1] was 14.6 µM [falling, partial curve].
Take `CCCCNC(=O)Nc1ccon1`: the cell number change is -1.61%. The AC50 under setting [2] is 0.326 µM [falling, full curve, poor fit].
`COCCC1CCCCN1C(=O)c1cc(COc2cccc(C(C)=O)c2)on1` (centres undefined): the cell number change was -34.3%. Under setting [2], the AC50 was 16.4 µM [falling, single point].
As for `CCC1CCCCN1C(=O)Cn1c(=O)n(CCCC(=O)NCc2ccco2)c(=O)c2sccc21` (centres undefined), the cell number change worked out at 10.1%.
Turning to `O=C(Nc1ccc(N2CCN(C(=O)c3ccc(Cl)cc3)CC2)cc1)c1ccc(Br)o1`, the cell number change is -23%. The AC50 under setting [1] is 16.4 µM [falling, partial curve, poor fit].
Take `Cc1nc(NC(=O)/C=C/c2ccc(F)cc2)sc1C(=O)N(C)C`: the cell number change was 1.8%. For the same compound, under setting [1], the AC50 was 4.61 µM [rising, full curve, poor fit].
Consider `Cc1cc(Br)ccc1NC(=O)CN1C(=O)C2CC=CCC2C1=O` (centres undefined), for which the cell number change is -0.699%. The AC50 under setting [1] is 6.51 µM [falling, partial curve, poor fit].
In the case of `CCn1ncc([C@@H]2C[C@H]3CN(Cc4cccc(Cl)c4)C(=O)[C@]34CCCN24)c1C`, the cell number change is -11.8%. Moreover, under setting [1], the AC50 is 2.91 µM [falling, single point].
For the compound `O=c1c2ccccc2[nH]c(=S)n1CCc1ccccc1`, the cell number change was -16.7%. In addition, the AC50 under setting [2] was 0.651 µM [falling, full curve, poor fit].
With `COc1cc(NS(=O)(=O)c2ccc(NC(=O)COc3ccccc3C)cc2)nc(OC)n1`, the AC50 was 0.651 µM [falling, partial curve] under setting [2] and 0.0731 µM [falling, full curve, poor fit] under setting [1].
Consider `CC(C)n1c(N2CCCC2)nc2c1c(=O)[nH]c(=O)n2C`, for which, under setting [1], the AC50 is 6.51 µM [rising, single point].
Turning to `CC1CN(C(=O)CN2C(=O)c3ccccc3S2(=O)=O)CC(C)O1` (centres undefined), the cell number change was -4.57%. In addition, the AC50 under setting [1] was 0.00517 µM [rising, full curve, poor fit].
In the case of `CN1C[C@H](C(=O)N[C@]2(C)O[C@@]3(O)[C@@H]4CCCN4C(=O)[C@H](Cc4ccccc4)N3C2=O)CC2c3cccc4[nH]cc(c34)C[C@H]21` (some centres undefined), the cell number change came to 8.8%. Further, under setting [1], the AC50 is 1.16 µM [rising, partial curve].
As to `C/C(=N\NC(=O)c1ccc(-c2ccccc2)cc1)c1cccc(N)c1`, the cell number change was -1.1%. Moreover, under setting [1], the AC50 is 0.13 µM [falling, full curve, poor fit].
For `COc1ccc(NC(=O)C(=O)NCC2CCCN2S(=O)(=O)c2ccc(C)cc2)cc1` (centres undefined), the cell number change was -39.2%. In addition, the AC50 under setting [2] was 16.4 µM [falling, partial curve]. The AC50 under setting [1] is 16.4 µM [falling, single point].
Regarding `Cc1ccccc1CNc1nnnn1C`, the cell number change was found to be 9.49%. The AC50 under setting [1] is 0.00731 µM [rising, full curve, poor fit].
`O=C(O)c1ccc(NS(=O)(=O)c2ccc(NC(=O)c3ccccc3Cl)cc2)cc1`: the cell number change was -1.31%. Further, the AC50 under setting [1] is 29.1 µM [rising, single point].
As to `O=C(NNc1cccc(Cl)n1)c1cccnc1Cl`, the cell number change is -21.7%. Also, the AC50 under setting [2] was 0.00461 µM [falling, full curve, poor fit]. Moreover, the AC50 under setting [1] was 16.4 µM [rising, partial curve, poor fit].
As for `CCOC(=O)c1cc(C(=O)OCC)cc(-n2c(C)cc(C(=O)CN3CCOCC3)c2C)c1`, the cell number change is -1.29%. In addition, the AC50 under setting [1] is 16.4 µM [rising, single point].
As for `O=C(CSc1nnc(Cc2cc(=O)[nH]c(=O)[nH]2)n1-c1ccccc1)N1CCCC1`, the cell number change worked out at 8.65%.
The same measure, in the same setting: for `COC(=O)CSc1nnc2n1C(C)(C)Cc1ccccc1-2` the value was -4.83%.
`CC(C)CCNC(=O)CC1Nc2c3ccccc3nc(=S)n2C1=O` (centres undefined): the cell number change turned out to be 0.668%. Under setting [2], the AC50 is 0.116 µM [falling, full curve, poor fit]. In addition, the AC50 under setting [1] is 0.82 µM [falling, full curve, poor fit].
